# Source: the supplement of paper PMC8728848
# Some of the results follow.
# Key:
# Test in all cases: glycan array binding signal (z-score within array); higher = stronger binding
# Details in all cases: glycan notation: IUPAC condensed, linker removed
# [1] = molecular target: Gal(b1-3)GlcNAc(b1-2)Man(a1-3)[Gal(b1-3)GlcNAc(b1-2)Man(a1-6)]Man(b1-4)GlcNAc(b1-4)GlcNAc
# How it was run: (§1)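 The binding signal is a Z-score computed within each array. Data were drawn from 3228 arrays in the Consortium for Functional Glycomics database, restricted to those with a known protein sequence. Scores were averaged over arrays of the same protein sequence at different concentrations or buffers, and over linkers, and negative values can be taken as non-binding.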
# [2] = molecular target: Gal(b1-3)GlcNAc(b1-2)Man(a1-3)[Gal(b1-3)GlcNAc(b1-2)Man(a1-6)]Man(b1-4)GlcNAc(b1-4)[Fuc(a1-6)]GlcNAc
# How it was run: as §1
# [3] = molecular target: Gal(b1-3)GlcNAc(b1-2)Man(a1-3)[GlcNAc(b1-4)][Gal(b1-3)GlcNAc(b1-2)Man(a1-6)]Man(b1-4)GlcNAc(b1-4)GlcNAc
# How it was run: as §1
# [4] = molecular target: Gal(b1-3)GlcNAc(b1-2)[Gal(b1-3)GlcNAc(b1-6)]Man(a1-6)[Gal(b1-3)GlcNAc(b1-2)Man(a1-3)]Man(b1-4)GlcNAc(b1-4)GlcNAc
# How it was run: as §1
# [5] = molecular target: Gal(b1-3)GlcNAc(b1-3)Gal(b1-3)GlcNAc
# How it was run: as §1
# [6] = molecular target: Gal(b1-3)GlcNAc(b1-3)Gal(b1-4)Glc
# How it was run: as §1
# [7] = molecular target: Gal(b1-3)GlcNAc(b1-3)Gal(b1-4)GlcNAc
# How it was run: as §1
# [8] = molecular target: Gal(b1-3)GlcNAc(b1-3)Gal(b1-4)GlcNAc(b1-2)Man(a1-3)[Gal(b1-3)GlcNAc(b1-3)Gal(b1-4)GlcNAc(b1-2)Man(a1-6)]Man(b1-4)GlcNAc(b1-4)GlcNAc
# How it was run: as §1
# [9] = molecular target: Gal(b1-3)GlcNAc(b1-3)Gal(b1-4)GlcNAc(b1-2)[Gal(b1-3)GlcNAc(b1-3)Gal(b1-4)GlcNAc(b1-6)]Man(a1-6)[Gal(b1-3)GlcNAc(b1-3)Gal(b1-4)GlcNAc(b1-2)Man(a1-3)]Man(b1-4)GlcNAc(b1-4)[Fuc(a1-6)]GlcNAc
# How it was run: as §1
# [10] = molecular target: Gal(b1-3)GlcNAc(b1-3)Gal(b1-4)GlcNAc(b1-3)Gal(b1-4)GlcNAc(b1-2)[Gal(b1-3)GlcNAc(b1-3)Gal(b1-4)GlcNAc(b1-3)Gal(b1-4)GlcNAc(b1-6)]Man(a1-6)[Gal(b1-3)GlcNAc(b1-3)Gal(b1-4)GlcNAc(b1-3)Gal(b1-4)GlcNAc(b1-2)Man(a1-3)]Man(b1-4)GlcNAc(b1-4)[Fuc(a1-6)]GlcNAc
# How it was run: as §1
# [11] = molecular target: Gal(b1-3)GlcNAc(b1-3)Gal(b1-4)GlcNAc(b1-6)[Gal(b1-3)GlcNAc(b1-3)]Gal(b1-4)Glc
# How it was run: as §1
# [12] = molecular target: Gal(b1-3)GlcNAc(b1-3)Gal(b1-4)[Fuc(a1-3)]GlcNAc
# How it was run: as §1
# [13] = molecular target: Gal(b1-3)GlcNAc(b1-3)Gal(b1-4)[Fuc(a1-3)]GlcNAc(b1-6)[Gal(b1-3)GlcNAc(b1-3)]Gal(b1-4)Glc
# How it was run: as §1
# [14] = molecular target: Gal(b1-3)GlcNAc(b1-3)GalNAc
# How it was run: as §1
# [15] = molecular target: Gal(b1-3)GlcNAc(b1-6)Gal(b1-4)GlcNAc
# How it was run: as §1
# [16] = molecular target: Gal(b1-3)GlcNAc(b1-6)GalNAc
# How it was run: as §1
# [17] = molecular target: Gal(b1-3)GlcNAc(b1-6)[Gal(b1-3)]GalNAc
# How it was run: as §1
# Gal(b1-3)GlcNAc6S = molecular target: Gal(b1-3)GlcNAc6S
# How it was run: as §1
# [18] = molecular target: Gal(b1-3)[Fuc(a1-4)]GlcNAc
# How it was run: as §1
# [19] = molecular target: Gal(b1-3)[Fuc(a1-4)]GlcNAc(b1-2)Man
# How it was run: as §1
# [20] = molecular target: Gal(b1-3)[Fuc(a1-4)]GlcNAc(b1-2)Man(a1-3)[Gal(b1-3)[Fuc(a1-4)]GlcNAc(b1-2)Man(a1-6)]Man(b1-4)GlcNAc(b1-4)[Fuc(a1-6)]GlcNAc
# How it was run: as §1
# [21] = molecular target: Gal(b1-3)[Fuc(a1-4)]GlcNAc(b1-3)Gal(b1-3)[Fuc(a1-4)]GlcNAc
# How it was run: as §1
# [22] = molecular target: Gal(b1-3)[Fuc(a1-4)]GlcNAc(b1-3)Gal(b1-4)[Fuc(a1-3)]GlcNAc
# How it was run: as §1
# [23] = molecular target: Gal(b1-3)[Fuc(a1-4)]GlcNAc(b1-6)GalNAc
# How it was run: as §1
# [24] = molecular target: Gal(b1-3)[GlcNAc(b1-6)]GalNAc
# How it was run: as §1
# [25] = molecular target: Gal(b1-3)[Neu5Ac(a2-6)]GalNAc
# How it was run: as §1
# [26] = molecular target: Gal(b1-3)[Neu5Ac(a2-6)]GlcNAc(b1-4)Gal(b1-4)Glc
# How it was run: as §1
# [27] = molecular target: Gal(b1-3)[Neu5Ac(b2-6)]GalNAc
# How it was run: as §1
# Gal(b1-4)Gal = molecular target: Gal(b1-4)Gal
# How it was run: as §1
# [28] = molecular target: Gal(b1-4)GalNAc(a1-3)[Fuc(a1-2)]Gal(b1-4)GlcNAc
# How it was run: as §1
# [29] = molecular target: Gal(b1-4)GalNAc(b1-3)[Fuc(a1-2)]Gal(b1-4)GlcNAc
# How it was run: as §1
# Gal(b1-4)Glc = molecular target: Gal(b1-4)Glc
# How it was run: as §1
# Gal(b1-4)Glc6S = molecular target: Gal(b1-4)Glc6S
# How it was run: as §1
# Gal(b1-4)GlcNAc = molecular target: Gal(b1-4)GlcNAc
# How it was run: as §1
# [30] = molecular target: Gal(b1-4)GlcNAc(a1-6)Gal(b1-4)GlcNAc
# How it was run: as §1
# Gal(b1-4)GlcNAc(b1-2)Man = molecular target: Gal(b1-4)GlcNAc(b1-2)Man
# How it was run: as §1
# [31] = molecular target: Gal(b1-4)GlcNAc(b1-2)Man(a1-3)Man(b1-4)GlcNAc(b1-4)GlcNAc
# How it was run: as §1
# [32] = molecular target: Gal(b1-4)GlcNAc(b1-2)Man(a1-3)[Gal(b1-4)GlcNAc(b1-2)Man(a1-6)]Man(b1-4)GlcNAc(b1-4)GlcNAc
# How it was run: as §1
# [33] = molecular target: Gal(b1-4)GlcNAc(b1-2)Man(a1-3)[Gal(b1-4)GlcNAc(b1-2)Man(a1-6)]Man(b1-4)GlcNAc(b1-4)[Fuc(a1-6)]GlcNAc
# How it was run: as §1
# [34] = molecular target: Gal(b1-4)GlcNAc(b1-2)Man(a1-3)[Gal(b1-4)GlcNAc(b1-2)Man(a1-6)][Gal(b1-4)GlcNAc(b1-4)]Man(b1-4)GlcNAc(b1-4)[Fuc(a1-6)]GlcNAc
# How it was run: as §1
# [35] = molecular target: Gal(b1-4)GlcNAc(b1-2)Man(a1-3)[Gal(b1-4)GlcNAc(b1-2)Man(a1-6)][GlcNAc(b1-4)]Man(b1-4)GlcNAc(b1-4)[Fuc(a1-6)]GlcNAc
# How it was run: as §1
# [36] = molecular target: Gal(b1-4)GlcNAc(b1-2)Man(a1-3)[GlcNAc(b1-2)Man(a1-6)]Man(b1-4)GlcNAc(b1-4)GlcNAc
# How it was run: as §1
# [37] = molecular target: Gal(b1-4)GlcNAc(b1-2)Man(a1-3)[GlcNAc(b1-4)][Gal(b1-4)GlcNAc(b1-2)Man(a1-6)]Man(b1-4)GlcNAc(b1-4)GlcNAc
# How it was run: as §1
# [38] = molecular target: Gal(b1-4)GlcNAc(b1-2)Man(a1-3)[Man(a1-6)]Man(b1-4)GlcNAc(b1-4)GlcNAc
# How it was run: as §1
# [39] = molecular target: Gal(b1-4)GlcNAc(b1-2)Man(a1-6)Man(b1-4)GlcNAc(b1-4)GlcNAc
# How it was run: as §1
binder,measurement,setting,value
"DC-Sign-R (Homo sapiens), Q9H2X3 (protein) MSDSKEPRVQQLGLLEEDPTTSGIRLFPRDFQFQQIHGHKSSTGCLGHGALVLQLLSFMLLAGVLVAILVQVSKVPSSLSQEQSEQDAIYQNLTQLKAAVGELSEKSKLQEIYQELTQLKAAVGELPEKSKLQEIYQELTRLKAAVGELPEKSKLQEIYQELTRLKAAVGELPEKSKLQEIYQELTRLKAAVGELPEKSKLQEIYQELTELKAAVGELPEKSKLQEIYQELTQLKAAVGELPDQSKQQQIYQELTDLKTAFERLCRHCPKDWTFFQGNCYFMSNSQRNWHDSVTACQEVRAQLVVIKTAEEQNFLQLQTSRSNRFSWMGLSDLNQEGTWQWVDGSPLSPSFQRYWNSGEPNNSGNEDCAEFSGSGWNDNRCDVDNYWICKKPAACFRDE",glycan array binding signal (z-score),[1],-0.64
same,glycan array binding signal (z-score),[2],-0.814
same,glycan array binding signal (z-score),[3],-0.013
same,glycan array binding signal (z-score),[4],-0.7
same,glycan array binding signal (z-score),[5],0.038
same,glycan array binding signal (z-score),[6],-0.799
same,glycan array binding signal (z-score),[7],-0.684
same,glycan array binding signal (z-score),[8],2.06
same,glycan array binding signal (z-score),[9],0.067
same,glycan array binding signal (z-score),[10],2.5
same,glycan array binding signal (z-score),[11],-0.833
same,glycan array binding signal (z-score),[12],0.359
same,glycan array binding signal (z-score),[13],-0.046
same,glycan array binding signal (z-score),[14],0.359
same,glycan array binding signal (z-score),[15],-0.502
same,glycan array binding signal (z-score),[16],-0.046
same,glycan array binding signal (z-score),[17],0.254
same,glycan array binding signal (z-score),Gal(b1-3)GlcNAc6S,1.41
same,glycan array binding signal (z-score),[18],-0.401
same,glycan array binding signal (z-score),[19],-0.259
same,glycan array binding signal (z-score),[20],-0.738
same,glycan array binding signal (z-score),[21],-0.526
same,glycan array binding signal (z-score),[22],-0.37
same,glycan array binding signal (z-score),[23],0.082
same,glycan array binding signal (z-score),[24],-0.257
same,glycan array binding signal (z-score),[25],-0.403
same,glycan array binding signal (z-score),[26],-0.679
same,glycan array binding signal (z-score),[27],0.069
same,glycan array binding signal (z-score),Gal(b1-4)Gal,-0.828
same,glycan array binding signal (z-score),[28],-0.269
same,glycan array binding signal (z-score),[29],-0.569
same,glycan array binding signal (z-score),Gal(b1-4)Glc,-0.717
same,glycan array binding signal (z-score),Gal(b1-4)Glc6S,-0.834
same,glycan array binding signal (z-score),Gal(b1-4)GlcNAc,-0.167
same,glycan array binding signal (z-score),[30],0.095
same,glycan array binding signal (z-score),Gal(b1-4)GlcNAc(b1-2)Man,0.1
same,glycan array binding signal (z-score),[31],0.931
same,glycan array binding signal (z-score),[32],-0.333
same,glycan array binding signal (z-score),[33],-0.832
same,glycan array binding signal (z-score),[34],0.82
same,glycan array binding signal (z-score),[35],-0.304
same,glycan array binding signal (z-score),[36],2.15
same,glycan array binding signal (z-score),[37],-0.292
same,glycan array binding signal (z-score),[38],1.29
same,glycan array binding signal (z-score),[39],1.69

# 2 entries from above, with tabs.
binder	measurement	setting	value
DC-Sign-R (Homo sapiens), Q9H2X3 (protein) MSDSKEPRVQQLGLLEEDPTTSGIRLFPRDFQFQQIHGHKSSTGCLGHGALVLQLLSFMLLAGVLVAILVQVSKVPSSLSQEQSEQDAIYQNLTQLKAAVGELSEKSKLQEIYQELTQLKAAVGELPEKSKLQEIYQELTRLKAAVGELPEKSKLQEIYQELTRLKAAVGELPEKSKLQEIYQELTRLKAAVGELPEKSKLQEIYQELTELKAAVGELPEKSKLQEIYQELTQLKAAVGELPDQSKQQQIYQELTDLKTAFERLCRHCPKDWTFFQGNCYFMSNSQRNWHDSVTACQEVRAQLVVIKTAEEQNFLQLQTSRSNRFSWMGLSDLNQEGTWQWVDGSPLSPSFQRYWNSGEPNNSGNEDCAEFSGSGWNDNRCDVDNYWICKKPAACFRDE	glycan array binding signal (z-score)	[5]	0.038
same	glycan array binding signal (z-score)	Gal(b1-3)GlcNAc6S	1.41
